In the supplement of paper PMC12819154, “High-throughput peptide-centric local stability assay extends protein–ligand identification to membrane proteins, tissues and bacteria” (Nature Structural & Molecular Biology, 2025):
The other results are listed elsewhere or left out. Most entries show no effect beyond the scatter of the controls.

Sequences of proteins named here, by UniProt entry; tags and fusion partners are left off. A change or cut given only in a name is not applied to a line headed by its entry.
UniProt Q6NZF1: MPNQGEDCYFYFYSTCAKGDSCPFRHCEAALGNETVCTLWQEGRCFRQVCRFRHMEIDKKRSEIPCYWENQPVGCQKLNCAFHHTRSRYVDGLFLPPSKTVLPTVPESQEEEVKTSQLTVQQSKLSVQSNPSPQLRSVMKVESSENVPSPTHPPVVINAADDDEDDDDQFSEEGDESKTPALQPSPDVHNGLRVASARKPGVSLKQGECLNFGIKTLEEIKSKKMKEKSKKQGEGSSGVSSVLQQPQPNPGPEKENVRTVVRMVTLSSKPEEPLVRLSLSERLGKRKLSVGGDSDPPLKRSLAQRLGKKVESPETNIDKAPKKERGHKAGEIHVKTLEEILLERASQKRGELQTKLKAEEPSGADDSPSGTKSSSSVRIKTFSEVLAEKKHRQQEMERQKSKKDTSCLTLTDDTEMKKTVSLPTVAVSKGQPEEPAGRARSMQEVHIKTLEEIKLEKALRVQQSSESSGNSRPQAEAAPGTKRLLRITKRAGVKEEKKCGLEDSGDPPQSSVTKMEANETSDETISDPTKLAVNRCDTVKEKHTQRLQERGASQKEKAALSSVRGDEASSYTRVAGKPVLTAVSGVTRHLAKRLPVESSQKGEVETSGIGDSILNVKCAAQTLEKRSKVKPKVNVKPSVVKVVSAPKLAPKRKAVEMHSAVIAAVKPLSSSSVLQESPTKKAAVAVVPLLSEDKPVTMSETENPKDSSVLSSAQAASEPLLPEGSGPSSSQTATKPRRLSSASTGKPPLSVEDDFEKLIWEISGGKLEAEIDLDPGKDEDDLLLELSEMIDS
UniProt Q71FD5: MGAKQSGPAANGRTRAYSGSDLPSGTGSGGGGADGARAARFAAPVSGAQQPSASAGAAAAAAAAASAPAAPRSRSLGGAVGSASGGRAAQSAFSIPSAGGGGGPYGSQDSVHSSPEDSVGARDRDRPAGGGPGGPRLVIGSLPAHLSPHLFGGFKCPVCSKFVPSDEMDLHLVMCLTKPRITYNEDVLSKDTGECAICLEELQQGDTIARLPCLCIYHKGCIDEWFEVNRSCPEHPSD
UniProt Q6P4T2: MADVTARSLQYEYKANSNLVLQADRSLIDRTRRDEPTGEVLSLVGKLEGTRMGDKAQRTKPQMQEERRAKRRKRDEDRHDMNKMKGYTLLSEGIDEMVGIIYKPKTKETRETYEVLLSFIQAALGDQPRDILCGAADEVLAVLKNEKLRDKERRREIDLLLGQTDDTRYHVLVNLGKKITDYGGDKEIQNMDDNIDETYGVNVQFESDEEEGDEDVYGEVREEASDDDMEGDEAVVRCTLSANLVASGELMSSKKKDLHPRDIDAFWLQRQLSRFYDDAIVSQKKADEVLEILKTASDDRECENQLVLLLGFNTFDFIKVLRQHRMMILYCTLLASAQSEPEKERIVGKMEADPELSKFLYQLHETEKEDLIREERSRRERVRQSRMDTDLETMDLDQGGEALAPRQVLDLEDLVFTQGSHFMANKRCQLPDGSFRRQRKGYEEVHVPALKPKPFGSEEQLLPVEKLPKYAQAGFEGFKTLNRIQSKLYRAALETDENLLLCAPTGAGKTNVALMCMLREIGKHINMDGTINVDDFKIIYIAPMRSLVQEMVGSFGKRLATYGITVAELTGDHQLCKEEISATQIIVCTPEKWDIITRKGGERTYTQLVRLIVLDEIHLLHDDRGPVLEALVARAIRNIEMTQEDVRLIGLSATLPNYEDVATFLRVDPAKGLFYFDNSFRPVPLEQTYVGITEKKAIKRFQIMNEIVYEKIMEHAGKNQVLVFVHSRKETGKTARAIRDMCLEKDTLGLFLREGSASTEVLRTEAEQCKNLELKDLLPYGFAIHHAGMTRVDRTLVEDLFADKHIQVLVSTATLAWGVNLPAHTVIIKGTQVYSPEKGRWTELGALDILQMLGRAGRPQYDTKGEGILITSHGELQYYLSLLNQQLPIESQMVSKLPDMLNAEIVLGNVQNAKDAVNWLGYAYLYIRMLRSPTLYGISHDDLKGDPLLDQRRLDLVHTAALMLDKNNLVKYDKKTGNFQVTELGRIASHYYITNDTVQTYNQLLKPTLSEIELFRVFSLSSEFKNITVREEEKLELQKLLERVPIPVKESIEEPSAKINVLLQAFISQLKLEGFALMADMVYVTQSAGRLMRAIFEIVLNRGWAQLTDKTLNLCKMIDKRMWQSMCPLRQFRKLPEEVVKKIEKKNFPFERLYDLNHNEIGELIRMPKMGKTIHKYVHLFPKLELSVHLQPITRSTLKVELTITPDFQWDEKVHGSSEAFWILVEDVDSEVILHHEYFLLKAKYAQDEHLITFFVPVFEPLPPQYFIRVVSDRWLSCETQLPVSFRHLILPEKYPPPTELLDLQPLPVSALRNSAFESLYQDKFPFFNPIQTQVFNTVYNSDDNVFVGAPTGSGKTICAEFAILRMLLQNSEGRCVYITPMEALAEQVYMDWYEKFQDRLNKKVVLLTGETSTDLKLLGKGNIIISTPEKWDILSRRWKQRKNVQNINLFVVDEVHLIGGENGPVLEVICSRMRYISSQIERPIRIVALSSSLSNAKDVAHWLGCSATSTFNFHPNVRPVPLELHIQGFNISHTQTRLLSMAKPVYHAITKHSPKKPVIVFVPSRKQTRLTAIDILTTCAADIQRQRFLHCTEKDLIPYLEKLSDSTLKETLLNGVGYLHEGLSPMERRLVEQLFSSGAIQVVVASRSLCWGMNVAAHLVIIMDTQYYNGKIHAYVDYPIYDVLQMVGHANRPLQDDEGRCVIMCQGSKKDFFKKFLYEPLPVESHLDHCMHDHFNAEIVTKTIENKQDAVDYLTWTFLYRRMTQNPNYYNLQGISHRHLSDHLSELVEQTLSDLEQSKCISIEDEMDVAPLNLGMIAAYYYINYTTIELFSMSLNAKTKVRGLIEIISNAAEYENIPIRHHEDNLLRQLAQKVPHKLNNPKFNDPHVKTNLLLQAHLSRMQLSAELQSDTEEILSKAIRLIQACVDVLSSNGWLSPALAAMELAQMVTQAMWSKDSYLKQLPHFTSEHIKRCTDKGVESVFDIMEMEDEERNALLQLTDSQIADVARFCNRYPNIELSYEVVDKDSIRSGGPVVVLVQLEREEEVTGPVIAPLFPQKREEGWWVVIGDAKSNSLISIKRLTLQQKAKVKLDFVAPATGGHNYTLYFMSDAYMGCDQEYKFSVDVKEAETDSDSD
UniProt Q8BGC3: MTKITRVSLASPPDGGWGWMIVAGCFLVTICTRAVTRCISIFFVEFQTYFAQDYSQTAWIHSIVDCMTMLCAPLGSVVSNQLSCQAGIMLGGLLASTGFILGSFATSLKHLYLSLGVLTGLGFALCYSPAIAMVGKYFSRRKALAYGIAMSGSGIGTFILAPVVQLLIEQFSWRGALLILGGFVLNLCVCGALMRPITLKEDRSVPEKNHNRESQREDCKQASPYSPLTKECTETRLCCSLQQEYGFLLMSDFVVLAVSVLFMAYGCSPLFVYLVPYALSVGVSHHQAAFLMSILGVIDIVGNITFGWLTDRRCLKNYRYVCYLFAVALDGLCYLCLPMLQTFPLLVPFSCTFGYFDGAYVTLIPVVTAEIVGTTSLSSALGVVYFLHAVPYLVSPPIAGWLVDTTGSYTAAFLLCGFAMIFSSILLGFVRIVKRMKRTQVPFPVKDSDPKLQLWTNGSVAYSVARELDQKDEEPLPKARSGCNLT
UniProt Q6P8U6: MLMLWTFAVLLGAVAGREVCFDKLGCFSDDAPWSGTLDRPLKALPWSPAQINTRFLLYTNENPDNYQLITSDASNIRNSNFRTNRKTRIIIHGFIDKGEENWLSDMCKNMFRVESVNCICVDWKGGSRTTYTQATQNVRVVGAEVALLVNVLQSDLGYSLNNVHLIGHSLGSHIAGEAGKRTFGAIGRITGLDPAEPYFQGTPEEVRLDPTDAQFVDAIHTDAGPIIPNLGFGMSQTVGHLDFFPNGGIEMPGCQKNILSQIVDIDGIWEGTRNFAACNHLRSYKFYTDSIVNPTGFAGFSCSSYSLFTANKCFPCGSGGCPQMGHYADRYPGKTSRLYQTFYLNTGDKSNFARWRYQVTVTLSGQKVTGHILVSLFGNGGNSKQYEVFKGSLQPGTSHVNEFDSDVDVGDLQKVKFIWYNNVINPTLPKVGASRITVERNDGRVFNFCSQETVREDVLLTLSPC
UniProt Q8BG73: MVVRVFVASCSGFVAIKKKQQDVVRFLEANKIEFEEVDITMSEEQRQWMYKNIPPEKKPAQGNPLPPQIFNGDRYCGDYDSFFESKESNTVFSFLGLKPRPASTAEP
UniProt Q76M72: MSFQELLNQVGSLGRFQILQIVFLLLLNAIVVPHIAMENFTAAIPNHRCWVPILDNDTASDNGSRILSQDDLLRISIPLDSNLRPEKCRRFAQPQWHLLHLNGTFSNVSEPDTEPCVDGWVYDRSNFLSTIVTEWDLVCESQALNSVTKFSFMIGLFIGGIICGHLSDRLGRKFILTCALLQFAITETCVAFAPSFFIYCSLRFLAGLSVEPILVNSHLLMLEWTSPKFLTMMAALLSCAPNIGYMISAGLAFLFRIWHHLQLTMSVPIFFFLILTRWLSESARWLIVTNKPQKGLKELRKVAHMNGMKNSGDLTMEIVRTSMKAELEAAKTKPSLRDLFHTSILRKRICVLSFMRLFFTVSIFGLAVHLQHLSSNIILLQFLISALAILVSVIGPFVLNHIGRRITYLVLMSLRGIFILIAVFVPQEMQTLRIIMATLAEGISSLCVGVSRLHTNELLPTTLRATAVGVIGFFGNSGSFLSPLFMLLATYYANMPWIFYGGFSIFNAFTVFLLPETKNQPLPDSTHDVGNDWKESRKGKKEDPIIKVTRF
UniProt Q7TQG1: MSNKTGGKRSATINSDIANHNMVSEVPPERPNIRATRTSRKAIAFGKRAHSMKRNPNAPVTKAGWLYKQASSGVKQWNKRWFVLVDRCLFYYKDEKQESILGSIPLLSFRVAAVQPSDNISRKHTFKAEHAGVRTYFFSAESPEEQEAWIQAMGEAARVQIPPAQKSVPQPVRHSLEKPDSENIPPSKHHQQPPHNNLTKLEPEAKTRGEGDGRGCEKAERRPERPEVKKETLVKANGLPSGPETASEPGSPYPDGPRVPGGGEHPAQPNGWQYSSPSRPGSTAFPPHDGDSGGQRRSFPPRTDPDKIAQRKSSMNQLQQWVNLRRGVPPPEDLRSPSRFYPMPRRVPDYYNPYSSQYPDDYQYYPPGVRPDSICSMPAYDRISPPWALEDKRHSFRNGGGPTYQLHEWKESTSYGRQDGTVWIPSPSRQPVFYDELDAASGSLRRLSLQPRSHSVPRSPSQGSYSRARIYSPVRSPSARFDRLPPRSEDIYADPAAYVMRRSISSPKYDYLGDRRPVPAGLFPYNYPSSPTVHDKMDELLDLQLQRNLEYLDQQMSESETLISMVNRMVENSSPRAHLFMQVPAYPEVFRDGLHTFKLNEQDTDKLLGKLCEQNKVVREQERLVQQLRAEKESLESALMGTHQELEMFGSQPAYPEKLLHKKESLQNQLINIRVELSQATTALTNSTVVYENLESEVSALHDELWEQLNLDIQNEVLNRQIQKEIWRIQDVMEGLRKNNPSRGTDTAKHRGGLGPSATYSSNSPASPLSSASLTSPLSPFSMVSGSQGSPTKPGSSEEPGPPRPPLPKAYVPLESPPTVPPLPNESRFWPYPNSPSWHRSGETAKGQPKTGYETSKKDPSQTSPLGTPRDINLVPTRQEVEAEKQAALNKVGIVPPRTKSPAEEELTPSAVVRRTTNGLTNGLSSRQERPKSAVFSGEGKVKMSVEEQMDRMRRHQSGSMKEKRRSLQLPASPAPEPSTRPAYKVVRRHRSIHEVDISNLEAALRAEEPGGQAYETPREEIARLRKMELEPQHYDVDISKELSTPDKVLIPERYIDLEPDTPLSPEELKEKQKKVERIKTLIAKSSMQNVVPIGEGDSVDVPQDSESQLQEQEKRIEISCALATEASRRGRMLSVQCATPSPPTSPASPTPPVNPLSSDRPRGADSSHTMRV
UniProt Q78S06: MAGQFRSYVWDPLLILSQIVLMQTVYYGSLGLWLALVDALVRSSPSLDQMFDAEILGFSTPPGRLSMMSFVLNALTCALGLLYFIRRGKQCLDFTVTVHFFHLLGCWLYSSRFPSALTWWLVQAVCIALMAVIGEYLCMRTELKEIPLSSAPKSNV
UniProt Q80ZM7, whole entry: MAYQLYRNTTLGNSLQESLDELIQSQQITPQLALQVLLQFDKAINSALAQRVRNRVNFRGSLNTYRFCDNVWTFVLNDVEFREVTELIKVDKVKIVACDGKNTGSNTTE
UniProt Q6PDY2: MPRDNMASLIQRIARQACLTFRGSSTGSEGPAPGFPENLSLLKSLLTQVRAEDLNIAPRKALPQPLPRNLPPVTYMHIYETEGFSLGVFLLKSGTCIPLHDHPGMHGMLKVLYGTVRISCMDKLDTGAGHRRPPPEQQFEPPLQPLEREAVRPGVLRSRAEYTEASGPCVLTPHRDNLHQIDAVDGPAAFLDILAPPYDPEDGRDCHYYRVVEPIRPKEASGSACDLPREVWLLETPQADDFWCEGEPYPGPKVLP

Compound: CN[C@@H]1C[C@H]2O[C@@](C)([C@@H]1OC)n1c3ccccc3c3c4c(c5c6ccccc6n2c5c31)C(=O)NC4 [staurosporine]
Experiment: log2 fold change of pooled soluble protein (PISA), ligand vs vehicle (log2 ratio); higher = more thermally stabilized
Conditions: ligand concentration: 20 uM; assay format: PISA pool 52.9/55.5/58.6 C

Target | log2 fold change of pooled soluble protein
UniProt Q6NZF1 | -0.0906
UniProt Q71FD5 | 0.174
UniProt Q6PDE7 | 0.0484
UniProt Q6P4T2 | -0.0962
UniProt Q7TT18 | 0.0325
UniProt Q80WC7 | -0.00619
UniProt Q6PER3 | 0.0708
UniProt Q6PHU5 | 0.266
UniProt Q8BGC3 | 0.143
UniProt Q80V26 | 0.362
UniProt Q6PIC6 | -0.00774
UniProt Q6PAV2 | 0.162
UniProt Q6P8U6 | 0.0281
UniProt Q8BG73 | -0.017
UniProt Q811U4 | 0.0416
UniProt Q80Y55 | -0.00829
UniProt Q80TA6 | -0.0545
UniProt Q6P2K6 | 0.0351

Exported as a markdown table: entries from further up.

| Target | log2 fold change of pooled soluble protein |
| --- | --- |
| UniProt Q8BGC3 | 0.143 |
| UniProt Q80V26 | 0.362 |

Later entries.

Target | log2 fold change of pooled soluble protein
UniProt Q76M72 | 0.0749
UniProt Q76MZ3 | 0.00147
UniProt Q6PAR5 | -0.0175
UniProt Q80TY0 | 0.0781
UniProt Q791V5 | 0.0164
UniProt Q6ZWR6 | -0.097
UniProt Q7TQG1 | -0.0265
UniProt Q78S06 | -0.3
UniProt Q80U04 | -0.189
UniProt Q80ZM7 | 0.0109
UniProt Q6PDY2 | -0.0374
UniProt Q6RHR9 | -0.00569
UniProt Q6ZQ38 | 0.0363
Q80T19;Q9EQ21 | 0.272
UniProt Q6R891 | -0.0114
UniProt Q6P8J7 | -0.0842
UniProt Q7TSH2 | 0.417
